# Results of single-concentration screens

Chains of the proteins cited; added tags and fusions are not shown. Residues count along the entry.
UniProt P9WPC5, whole entry: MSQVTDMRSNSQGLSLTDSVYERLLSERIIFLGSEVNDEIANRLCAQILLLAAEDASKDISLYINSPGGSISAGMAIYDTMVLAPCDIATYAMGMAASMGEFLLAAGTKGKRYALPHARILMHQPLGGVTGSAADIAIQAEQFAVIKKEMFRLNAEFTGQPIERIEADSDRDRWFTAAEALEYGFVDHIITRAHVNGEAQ
UniProt P9WPC3, whole entry partner: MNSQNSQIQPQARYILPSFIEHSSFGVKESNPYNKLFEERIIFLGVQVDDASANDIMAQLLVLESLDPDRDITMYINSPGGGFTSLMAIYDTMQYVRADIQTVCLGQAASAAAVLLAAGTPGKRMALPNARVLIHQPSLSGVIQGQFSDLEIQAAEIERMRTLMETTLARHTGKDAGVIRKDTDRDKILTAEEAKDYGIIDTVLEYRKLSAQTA
UniProt I6X8D2, whole entry: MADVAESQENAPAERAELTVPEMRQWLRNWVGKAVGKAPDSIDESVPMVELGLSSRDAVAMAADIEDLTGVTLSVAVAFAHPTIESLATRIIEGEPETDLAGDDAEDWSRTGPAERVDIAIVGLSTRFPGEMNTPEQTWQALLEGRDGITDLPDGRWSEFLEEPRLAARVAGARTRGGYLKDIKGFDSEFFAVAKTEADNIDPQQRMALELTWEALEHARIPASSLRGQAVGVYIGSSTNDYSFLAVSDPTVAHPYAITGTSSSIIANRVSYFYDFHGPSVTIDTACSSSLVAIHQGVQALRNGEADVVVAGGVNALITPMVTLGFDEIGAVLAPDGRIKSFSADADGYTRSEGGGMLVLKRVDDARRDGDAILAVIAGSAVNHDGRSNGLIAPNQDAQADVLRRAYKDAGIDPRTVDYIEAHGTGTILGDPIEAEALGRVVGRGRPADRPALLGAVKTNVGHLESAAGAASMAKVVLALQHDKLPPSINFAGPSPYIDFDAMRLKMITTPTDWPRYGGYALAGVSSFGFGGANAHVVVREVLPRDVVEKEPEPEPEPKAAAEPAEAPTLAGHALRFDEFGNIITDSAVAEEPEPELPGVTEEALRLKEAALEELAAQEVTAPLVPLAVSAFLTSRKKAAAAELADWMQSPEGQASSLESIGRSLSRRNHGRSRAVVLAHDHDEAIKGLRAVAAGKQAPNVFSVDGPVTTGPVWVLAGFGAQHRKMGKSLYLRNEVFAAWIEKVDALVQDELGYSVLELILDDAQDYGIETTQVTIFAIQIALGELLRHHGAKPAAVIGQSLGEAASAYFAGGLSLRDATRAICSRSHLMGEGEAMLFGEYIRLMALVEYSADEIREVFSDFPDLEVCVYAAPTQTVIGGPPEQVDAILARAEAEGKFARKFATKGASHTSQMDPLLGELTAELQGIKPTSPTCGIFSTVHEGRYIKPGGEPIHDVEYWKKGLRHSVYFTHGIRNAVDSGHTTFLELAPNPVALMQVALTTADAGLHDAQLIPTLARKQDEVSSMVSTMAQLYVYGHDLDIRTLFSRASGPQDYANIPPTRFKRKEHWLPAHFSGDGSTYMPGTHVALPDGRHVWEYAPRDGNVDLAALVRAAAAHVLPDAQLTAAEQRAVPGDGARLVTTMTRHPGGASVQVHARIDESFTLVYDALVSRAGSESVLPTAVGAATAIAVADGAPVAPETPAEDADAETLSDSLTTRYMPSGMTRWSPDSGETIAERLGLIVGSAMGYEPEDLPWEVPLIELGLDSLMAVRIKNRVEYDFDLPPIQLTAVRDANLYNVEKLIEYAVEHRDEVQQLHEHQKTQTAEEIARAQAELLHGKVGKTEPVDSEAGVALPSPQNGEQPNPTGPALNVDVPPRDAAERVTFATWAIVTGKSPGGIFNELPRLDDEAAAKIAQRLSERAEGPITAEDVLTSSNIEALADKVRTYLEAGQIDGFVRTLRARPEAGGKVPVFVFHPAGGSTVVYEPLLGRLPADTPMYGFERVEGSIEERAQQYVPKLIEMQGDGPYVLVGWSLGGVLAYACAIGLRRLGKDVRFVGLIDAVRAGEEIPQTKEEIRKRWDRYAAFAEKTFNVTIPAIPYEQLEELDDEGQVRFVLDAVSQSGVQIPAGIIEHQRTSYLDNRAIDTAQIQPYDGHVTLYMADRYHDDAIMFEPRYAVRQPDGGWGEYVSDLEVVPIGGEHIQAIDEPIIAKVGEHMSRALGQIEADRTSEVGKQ
UniProt Q8IDJ8, 1-583: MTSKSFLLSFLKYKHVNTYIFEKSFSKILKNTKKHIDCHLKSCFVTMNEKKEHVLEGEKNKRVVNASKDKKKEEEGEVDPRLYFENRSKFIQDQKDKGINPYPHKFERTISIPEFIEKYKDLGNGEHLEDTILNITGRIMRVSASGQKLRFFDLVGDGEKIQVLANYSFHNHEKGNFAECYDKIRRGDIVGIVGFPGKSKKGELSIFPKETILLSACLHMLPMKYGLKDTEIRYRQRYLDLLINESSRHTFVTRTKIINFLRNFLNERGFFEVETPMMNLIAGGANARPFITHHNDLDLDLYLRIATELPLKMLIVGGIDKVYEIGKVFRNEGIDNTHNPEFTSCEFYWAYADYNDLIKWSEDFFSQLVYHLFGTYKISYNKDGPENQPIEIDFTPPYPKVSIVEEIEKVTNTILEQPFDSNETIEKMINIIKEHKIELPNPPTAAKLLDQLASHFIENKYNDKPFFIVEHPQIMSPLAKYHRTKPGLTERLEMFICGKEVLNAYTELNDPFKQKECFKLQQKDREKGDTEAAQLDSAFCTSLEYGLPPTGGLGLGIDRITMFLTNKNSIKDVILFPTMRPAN

Data taken from ChEMBL document CHEMBL3988442, “University of Dundee, Small-Polar-MMV Screening Library” (2021).

Each number is a percent effect as filed. The controls that fix the scale are not given in the record; negative values are as filed. Compounds were drawn at random from those tested, without regard to their results. A dash means the value is not listed here; it may have been measured.

ClpP1P2: 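Protease assay of ClpP1P2, read by the AMC dye that it sets free. Target: ClpP1P2, Mycobacterium tuberculosis (UniProt P9WPC5 and UniProt P9WPC3). Tested at 50 µM. Direction is inferred from only a few compounds that gave an IC50; most scored high, so higher reads as stronger inhibition. Most other retested compounds had strongly negative values. Size under these conditions: about 69,000 compounds, about 10 of them at 50% or above in at least one test.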
Leishmania in macrophages: 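Cell assay of Leishmania donovani living inside macrophages; the read-out is not stated. Compounds at 30 µM. The record gives no direction; compounds that gave an IC50 in retests scored well above the rest, so higher reads as stronger inhibition. Size under these conditions: about 69,000 compounds, about 1,000 of them at 50% or above in at least one test.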
Pks13 thioesterase: 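Polyketide synthase Pks13, Mycobacterium tuberculosis (UniProt I6X8D2). Enzyme assay of the thioesterase domain of polyketide synthase 13; the read-out is not stated. Tested at 30 µM. Higher reads as stronger inhibition (inferred from which compounds were picked for retests). About 67,000 compounds were tested under these conditions; 0.46% (about 300) showed 50% or more at least once.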
PfKRS1: 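Lysine-tRNA ligase, Plasmodium falciparum 3D7 (UniProt Q8IDJ8). Enzyme assay of the cytosolic lysyl-tRNA synthetase in 384-well plates, read by luminescence. Tested at 30 µM. Higher reads as stronger inhibition, judged from the few compounds that gave an IC50. About 69,000 compounds were tested under these conditions; 0.071% (about 49) showed 50% or more at least once.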
Toxoplasma: 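Assay of Toxoplasma gondii numbers, read through their beta-galactosidase reporter with a colour substrate. Compounds at 10 µM. Higher reads as fewer parasites (inferred from which compounds were picked for retests). Size under these conditions: about 67,000 compounds, about 260 of them at 50% or above in at least one test.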

SMILES	ClpP1P2	Leishmania in macrophages	Pks13 thioesterase	PfKRS1	Toxoplasma
CC(C)N(C)S(=O)(=O)N(C)Cc1ccc2c(c1)OCCO2	2.811	9.328	-13.63	4.467	7.714
COCC1CN(CC2CC2)Cc2nccn2C1.O=C(O)C(F)(F)F (stereo unspecified)	-	14.6	-	-	0.2941
Cc1nc(CN2CCCC(Nc3ncnc4ccccc34)C2)no1 (stereo unspecified)	-2.613	35.91	-0.7433	-3.61	2.041
COCCN1CCN(CCCS(=O)(=O)N(C)C)CC1C (stereo unspecified)	-22.31	-3.645	1.058	-1.239	-0.9253
c1ccc(CN2CCN(Cc3cnc(C4CCCCO4)nc3)CC2)cc1 (stereo unspecified)	7.041	7.316	2.067	0.5645	4.587
O=C(c1ccco1)N1C[C@@H]2OCCN(c3ncccn3)[C@@H]2C1	-5.575	-	-5.312	-0.09435	-
COc1ccc(C(=O)C2CCCN(CCc3ccccc3)C2)c(OC)c1 (stereo unspecified)	-10.65	-9.576	-22.34	-0.4735	-6.108
CN(C)CC(=O)N1CCc2onc(Cn3cccn3)c2C1	12.24	38.03	-5.998	3.907	3.983
CC[C@H]1CN(S(=O)(=O)c2ccc(OC)cc2)CC[C@H]1CC(=O)O	-1.5	9.802	-38.26	4.22	10.99
O=C(c1cnccn1)N1CCc2onc(CN3CCCC3)c2C1	10.49	-11.05	-35.85	-1.511	-6.759
Cc1csc(N2CCN(C(=O)CCC(=O)c3ccc(C)s3)CC2)n1	13.96	21.15	-7.233	-1.349	-1.206
Cc1nn(C)c(Cl)c1C1CCCN1C(=O)c1ccc[nH]1 (stereo unspecified)	-13.05	-13.76	-22.57	-1.625	-11.8
O=C(Nc1cccn(Cc2ccccc2)c1=O)c1ccncc1F	0.1057	6.777	8	-2.808	0.6483
CCOc1ccc(NC(=O)NCCCN(C)S(C)(=O)=O)cc1C	0.4283	20.27	-17.81	-1.879	0.5737
CN(C)Cc1cncc2c1CCN(Cc1cnn(C)c1)C2	-10.25	-	-	4.019	-
O=C(c1ccncc1)N1CCc2ncnc(C3CC3)c2CC1	8.297	-	-10.96	-1.941	-
Cc1ccc(CNC2CCc3nc(C(C)C)nn3C2)o1 (stereo unspecified)	4.876	22.1	2.723	3.686	1.331
Cc1nc(C)n(CC2CCCN2Cc2cn3ccccc3c2C#N)n1 (stereo unspecified)	-1.632	6.281	18.39	2.202	-4.98
COCCN1C(=O)[C@]2(CC[C@@H]3CN(C(=O)NCC(C)C)C[C@@H]32)N=C1C	-1.584	-	-6.169	2.302	-
Fc1ccccc1CN1CCC(c2noc(-c3ccccn3)n2)CC1	-31.88	19.26	-1.199	0.9306	0.9044
CCOc1ccnc(N2CCN(C(=O)c3cccnc3)CC2)n1	-9.931	6.038	-9.242	0.4498	-32.77
[H][C@@]12CN(C)C[C@]1([H])N(CCc1ccc(OC)cc1)C(=O)O2	-	46.07	-	-	-9.467
O=C(O)C(F)(F)F.[H][C@@]12COC[C@]1(C(=O)NCCc1cccs1)CN(C)C2	-	1.252	-	-	4.395
CC(C)(C)c1ncc(C(=O)NCCNC(=O)Cc2ccccc2)s1	-35.16	6.404	-7.854	-0.2634	-14.26
CNS(=O)(=O)c1cccc(C(C)NCc2ccccc2OC)c1 (stereo unspecified)	-7.38	28.24	-19.1	4.566	-0.1608
CC(NC(=O)NCCn1ccnc1)c1ccc2c(c1)OCCCO2 (stereo unspecified)	3.159	4.138	-13.23	0.8024	19.73
CCCC(=O)N1CCC(c2ncc3c(n2)CCNC3)CC1	0.1282	8.339	-5.606	0.08367	10.04
N#Cc1cc(CSCCN2CCOCC2)ccc1F	-4.579	7.193	-19.28	3.3	-3.22
O=C(NC[C@H]1CCCO1)c1ccc(S(=O)(=O)N2C[C@@H]3C[C@H]2CN3)cc1	-8.048	-	-10.18	2.602	-
Cc1cncc(C(=O)N2CC[C@@]3(C[C@H](NS(C)(=O)=O)CCO3)C2)c1.O=C(O)C(F)(F)F	-	4.846	-	-	-1.57
COc1ccnc(CN2CCCC(CCc3ccc(F)cc3)C2)c1OC (stereo unspecified)	-31.88	17.55	-8.715	1.236	-29.24
COc1ccccc1CNC(=O)CNCCn1cc(C)cn1	1.45	30.47	-76.56	0.926	-6.539
O=C(c1ccccn1)N1CCC(Oc2cccnc2)CC1	5.55	6.104	-30.22	-0.7787	-51.97
CC(SCCS(C)(=O)=O)c1nc(Cc2ccccc2)no1 (stereo unspecified)	-6.058	27.95	-19.51	1.008	-5.712
Cc1cc(NC(=O)NCc2ccncc2)ccc1OC(C)C	-0.7154	1.301	10.7	3.522	-4.302
CC(C)Nc1nc2c(c(NC3CC3)n1)CN(C(=O)c1ccsc1)CC2	45.88	38.02	-36.97	4.476	4.415
CC(C)Oc1ncccc1CNC(=O)c1cnccn1	-27.98	20.38	3.141	-0.3882	-11.81
Cc1nc(C)n(CC2CCCCN2CCCC#N)n1 (stereo unspecified)	9.291	19.85	-18.31	3.717	10.19
CS(=O)(=O)CCC(=O)N(Cc1c(F)cccc1F)C1CCCC1	-2.076	26.39	-30.3	0.3747	-3.471
N#Cc1cccc(CN(CC(=O)N2CCCC2)CC2CCCO2)c1 (stereo unspecified)	-10.25	-10.24	3.246	2.216	13.63
CCn1c(CN(C)C)nnc1C1CCN(Cc2ccc(Cl)cc2)CC1	-4.908	22.97	-7.766	7.856	1.622
Cc1ncnc2c1CCN(CC(=O)N(C)C)CC2	-2.582	-	0.2688	5.342	-
CC(Cn1cccn1)NCc1csc(Cc2ccccc2)n1 (stereo unspecified)	-15.52	13.58	-20.36	1.136	9.295

The last 5 entries again:

SMILES,ClpP1P2,Leishmania in macrophages,Pks13 thioesterase,PfKRS1,Toxoplasma
CS(=O)(=O)CCC(=O)N(Cc1c(F)cccc1F)C1CCCC1,-2.076,26.39,-30.3,0.3747,-3.471
N#Cc1cccc(CN(CC(=O)N2CCCC2)CC2CCCO2)c1 (stereo unspecified),-10.25,-10.24,3.246,2.216,13.63
CCn1c(CN(C)C)nnc1C1CCN(Cc2ccc(Cl)cc2)CC1,-4.908,22.97,-7.766,7.856,1.622
Cc1ncnc2c1CCN(CC(=O)N(C)C)CC2,-2.582,-,0.2688,5.342,-
CC(Cn1cccn1)NCc1csc(Cc2ccccc2)n1 (stereo unspecified),-15.52,13.58,-20.36,1.136,9.295